The other results are listed elsewhere or left out.
How the values were obtained:
Test in all cases: log2 fold change, soluble protein after heating vs DMSO (PISA); higher = thermal stabilisation; K562 cells, 10 uM, 30 min; active = over 0.2 and 3.5 SD of the protein, either way, in both replicates (recomputed)
[1] = compound: CC[C@@H]1C(=O)N(C)c2cnc(Nc3ccc(C(=O)NC4CCN(C)CC4)cc3OC)nc2N1C1CCCC1
In short: (§1)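 Soluble protein was quantified by TMTpro 16plex LC-MS/MS after channel sums were equalised. It was obtained as the supernatant after 21,000xg for 90 min from pooled aliquots of K562 cells (2×10^6 cells/mL, 10 μM compound, 30 min) heated for 3 min across 48°C-58°C and extracted in PBS with 0.5% NP-40 at 4°C. Thermal stability values are relative to control samples and come from duplicates. They are given as log2 fold changes.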

By UniProt entry, the sequences of proteins in these tests, tags left out. Where a name states a change or a piece, a line headed by the entry shows the natural chain unless it says otherwise.
UniProt Q13042, whole entry, looked up: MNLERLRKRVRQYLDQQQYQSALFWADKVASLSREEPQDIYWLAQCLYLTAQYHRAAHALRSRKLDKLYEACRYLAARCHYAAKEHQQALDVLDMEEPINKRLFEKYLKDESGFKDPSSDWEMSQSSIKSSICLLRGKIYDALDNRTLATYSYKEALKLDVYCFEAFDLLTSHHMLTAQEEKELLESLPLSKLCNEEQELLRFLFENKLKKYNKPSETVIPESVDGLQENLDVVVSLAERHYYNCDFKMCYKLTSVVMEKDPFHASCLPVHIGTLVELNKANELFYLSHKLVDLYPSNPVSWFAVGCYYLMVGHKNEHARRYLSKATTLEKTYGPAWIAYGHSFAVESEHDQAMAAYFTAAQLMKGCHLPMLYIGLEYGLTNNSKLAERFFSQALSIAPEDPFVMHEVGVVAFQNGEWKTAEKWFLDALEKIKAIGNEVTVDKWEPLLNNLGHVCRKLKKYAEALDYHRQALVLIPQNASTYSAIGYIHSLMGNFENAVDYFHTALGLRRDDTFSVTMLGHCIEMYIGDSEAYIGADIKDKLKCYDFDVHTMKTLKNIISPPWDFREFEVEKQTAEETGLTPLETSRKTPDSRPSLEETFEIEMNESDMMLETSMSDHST
UniProt P08962, whole entry, looked up: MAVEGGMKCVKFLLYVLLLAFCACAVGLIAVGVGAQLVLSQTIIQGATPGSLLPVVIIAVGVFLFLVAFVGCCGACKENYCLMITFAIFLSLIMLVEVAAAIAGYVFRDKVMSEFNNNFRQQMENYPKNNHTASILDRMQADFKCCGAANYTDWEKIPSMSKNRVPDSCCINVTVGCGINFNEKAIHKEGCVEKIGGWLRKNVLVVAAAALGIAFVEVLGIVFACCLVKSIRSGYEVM
UniProt P60033: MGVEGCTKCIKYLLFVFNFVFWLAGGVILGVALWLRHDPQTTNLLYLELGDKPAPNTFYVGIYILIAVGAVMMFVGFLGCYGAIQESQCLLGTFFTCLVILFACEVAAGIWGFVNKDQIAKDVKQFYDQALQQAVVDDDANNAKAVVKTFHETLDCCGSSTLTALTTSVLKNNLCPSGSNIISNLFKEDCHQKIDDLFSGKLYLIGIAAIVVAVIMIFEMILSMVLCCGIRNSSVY
UniProt P86791: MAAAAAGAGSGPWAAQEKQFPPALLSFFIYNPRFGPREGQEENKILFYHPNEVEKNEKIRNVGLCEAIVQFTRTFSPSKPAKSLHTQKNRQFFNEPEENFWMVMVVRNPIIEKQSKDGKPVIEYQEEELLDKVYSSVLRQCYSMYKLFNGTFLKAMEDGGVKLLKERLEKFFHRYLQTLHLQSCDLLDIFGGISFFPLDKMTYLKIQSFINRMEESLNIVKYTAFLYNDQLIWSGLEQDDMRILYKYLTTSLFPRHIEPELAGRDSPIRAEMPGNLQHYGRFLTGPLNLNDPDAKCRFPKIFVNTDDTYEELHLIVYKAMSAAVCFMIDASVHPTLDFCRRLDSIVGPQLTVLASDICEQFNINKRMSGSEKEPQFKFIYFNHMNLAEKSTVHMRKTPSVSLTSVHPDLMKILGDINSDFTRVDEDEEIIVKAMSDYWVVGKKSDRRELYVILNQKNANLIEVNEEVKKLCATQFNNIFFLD
UniProt Q96F63: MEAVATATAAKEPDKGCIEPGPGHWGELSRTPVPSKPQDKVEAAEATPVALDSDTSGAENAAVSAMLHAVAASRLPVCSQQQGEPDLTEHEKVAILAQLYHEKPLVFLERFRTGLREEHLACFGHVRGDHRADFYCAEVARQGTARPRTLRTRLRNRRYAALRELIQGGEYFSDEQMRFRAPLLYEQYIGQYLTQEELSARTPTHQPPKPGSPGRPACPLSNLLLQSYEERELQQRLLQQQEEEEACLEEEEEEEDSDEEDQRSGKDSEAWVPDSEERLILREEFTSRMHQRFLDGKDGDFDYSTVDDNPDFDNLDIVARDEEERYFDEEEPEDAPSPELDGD
UniProt Q8IX12: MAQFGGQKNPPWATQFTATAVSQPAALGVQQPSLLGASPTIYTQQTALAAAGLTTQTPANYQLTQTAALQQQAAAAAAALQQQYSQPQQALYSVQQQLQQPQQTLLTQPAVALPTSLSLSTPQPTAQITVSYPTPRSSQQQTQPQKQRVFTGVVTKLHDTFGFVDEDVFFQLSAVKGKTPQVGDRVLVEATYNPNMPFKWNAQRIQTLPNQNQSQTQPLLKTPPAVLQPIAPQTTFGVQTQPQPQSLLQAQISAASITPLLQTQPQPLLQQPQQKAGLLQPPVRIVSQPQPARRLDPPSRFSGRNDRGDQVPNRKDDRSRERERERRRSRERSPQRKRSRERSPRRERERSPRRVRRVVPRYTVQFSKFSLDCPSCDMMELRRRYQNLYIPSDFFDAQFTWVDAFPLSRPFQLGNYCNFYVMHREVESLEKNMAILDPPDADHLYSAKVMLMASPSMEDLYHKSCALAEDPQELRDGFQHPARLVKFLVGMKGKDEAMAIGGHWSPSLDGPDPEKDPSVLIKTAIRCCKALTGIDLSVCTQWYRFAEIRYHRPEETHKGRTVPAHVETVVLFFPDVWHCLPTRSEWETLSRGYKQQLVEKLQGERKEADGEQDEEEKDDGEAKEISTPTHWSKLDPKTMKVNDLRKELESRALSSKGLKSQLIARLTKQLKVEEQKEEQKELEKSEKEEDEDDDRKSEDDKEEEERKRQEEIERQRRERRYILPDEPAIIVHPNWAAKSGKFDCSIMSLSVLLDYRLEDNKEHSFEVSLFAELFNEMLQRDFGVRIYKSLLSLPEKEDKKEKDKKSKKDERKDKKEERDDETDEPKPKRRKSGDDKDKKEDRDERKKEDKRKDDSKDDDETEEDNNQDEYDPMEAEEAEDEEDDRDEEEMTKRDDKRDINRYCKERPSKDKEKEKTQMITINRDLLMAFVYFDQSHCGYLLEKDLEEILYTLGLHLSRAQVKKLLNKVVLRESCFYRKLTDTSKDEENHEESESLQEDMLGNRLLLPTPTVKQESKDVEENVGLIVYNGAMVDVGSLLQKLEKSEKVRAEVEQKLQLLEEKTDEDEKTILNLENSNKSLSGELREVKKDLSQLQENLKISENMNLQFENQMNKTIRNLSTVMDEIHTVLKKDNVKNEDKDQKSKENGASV
UniProt P35520: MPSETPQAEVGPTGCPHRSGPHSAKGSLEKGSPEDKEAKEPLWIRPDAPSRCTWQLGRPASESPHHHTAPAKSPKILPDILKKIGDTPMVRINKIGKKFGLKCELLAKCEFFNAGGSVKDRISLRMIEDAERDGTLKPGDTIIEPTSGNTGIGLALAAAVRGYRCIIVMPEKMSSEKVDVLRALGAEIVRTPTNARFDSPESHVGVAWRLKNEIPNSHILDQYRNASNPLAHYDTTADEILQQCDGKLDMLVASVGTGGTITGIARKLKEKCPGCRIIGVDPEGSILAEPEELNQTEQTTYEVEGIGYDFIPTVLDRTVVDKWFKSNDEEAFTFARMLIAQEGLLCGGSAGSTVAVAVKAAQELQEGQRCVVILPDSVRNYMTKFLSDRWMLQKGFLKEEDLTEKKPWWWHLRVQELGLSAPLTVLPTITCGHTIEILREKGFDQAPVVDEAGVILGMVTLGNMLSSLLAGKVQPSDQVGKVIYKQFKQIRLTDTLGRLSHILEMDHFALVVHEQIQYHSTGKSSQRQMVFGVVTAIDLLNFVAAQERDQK
UniProt Q14790: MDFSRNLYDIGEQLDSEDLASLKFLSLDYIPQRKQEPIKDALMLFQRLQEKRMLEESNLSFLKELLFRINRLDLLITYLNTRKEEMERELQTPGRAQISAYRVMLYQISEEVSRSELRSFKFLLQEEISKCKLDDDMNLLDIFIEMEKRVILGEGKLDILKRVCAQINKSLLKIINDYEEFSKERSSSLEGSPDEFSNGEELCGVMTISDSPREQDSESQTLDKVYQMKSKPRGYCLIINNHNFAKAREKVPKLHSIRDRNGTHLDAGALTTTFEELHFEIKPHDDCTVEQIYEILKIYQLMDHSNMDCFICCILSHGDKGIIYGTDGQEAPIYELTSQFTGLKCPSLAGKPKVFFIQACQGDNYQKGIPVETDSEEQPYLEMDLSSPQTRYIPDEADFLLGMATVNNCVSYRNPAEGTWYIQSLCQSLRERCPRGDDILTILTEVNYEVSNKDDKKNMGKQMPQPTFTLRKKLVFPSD
UniProt P83916, whole entry, looked up: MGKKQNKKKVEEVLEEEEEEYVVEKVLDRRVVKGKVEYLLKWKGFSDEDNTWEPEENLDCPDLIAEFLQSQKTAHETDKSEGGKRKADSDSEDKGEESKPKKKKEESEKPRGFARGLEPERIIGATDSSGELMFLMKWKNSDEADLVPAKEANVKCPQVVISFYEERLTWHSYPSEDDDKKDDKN
UniProt Q9Y3X0: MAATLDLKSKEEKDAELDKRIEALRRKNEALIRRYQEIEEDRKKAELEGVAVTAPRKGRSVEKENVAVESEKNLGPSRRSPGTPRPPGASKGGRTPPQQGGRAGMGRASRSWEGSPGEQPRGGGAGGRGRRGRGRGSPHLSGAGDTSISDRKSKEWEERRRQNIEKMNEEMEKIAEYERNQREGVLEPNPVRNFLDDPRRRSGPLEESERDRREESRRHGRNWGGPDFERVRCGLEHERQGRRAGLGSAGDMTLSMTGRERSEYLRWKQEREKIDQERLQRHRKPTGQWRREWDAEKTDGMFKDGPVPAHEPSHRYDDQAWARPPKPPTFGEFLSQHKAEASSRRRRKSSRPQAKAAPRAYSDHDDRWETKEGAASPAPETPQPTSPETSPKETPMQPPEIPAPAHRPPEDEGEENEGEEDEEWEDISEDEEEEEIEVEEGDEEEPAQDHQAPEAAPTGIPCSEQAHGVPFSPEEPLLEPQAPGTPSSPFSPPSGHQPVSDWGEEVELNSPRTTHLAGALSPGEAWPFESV
UniProt P08174: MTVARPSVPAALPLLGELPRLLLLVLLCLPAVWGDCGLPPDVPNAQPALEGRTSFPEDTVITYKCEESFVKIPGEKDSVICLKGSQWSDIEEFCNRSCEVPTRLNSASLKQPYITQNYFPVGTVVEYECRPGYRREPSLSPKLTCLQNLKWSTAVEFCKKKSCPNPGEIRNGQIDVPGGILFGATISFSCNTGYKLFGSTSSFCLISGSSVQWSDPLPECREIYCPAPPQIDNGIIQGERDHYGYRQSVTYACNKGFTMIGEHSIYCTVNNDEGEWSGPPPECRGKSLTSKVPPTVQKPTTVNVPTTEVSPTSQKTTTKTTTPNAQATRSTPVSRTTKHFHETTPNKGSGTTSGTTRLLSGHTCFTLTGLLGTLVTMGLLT
UniProt O60563, whole entry, looked up: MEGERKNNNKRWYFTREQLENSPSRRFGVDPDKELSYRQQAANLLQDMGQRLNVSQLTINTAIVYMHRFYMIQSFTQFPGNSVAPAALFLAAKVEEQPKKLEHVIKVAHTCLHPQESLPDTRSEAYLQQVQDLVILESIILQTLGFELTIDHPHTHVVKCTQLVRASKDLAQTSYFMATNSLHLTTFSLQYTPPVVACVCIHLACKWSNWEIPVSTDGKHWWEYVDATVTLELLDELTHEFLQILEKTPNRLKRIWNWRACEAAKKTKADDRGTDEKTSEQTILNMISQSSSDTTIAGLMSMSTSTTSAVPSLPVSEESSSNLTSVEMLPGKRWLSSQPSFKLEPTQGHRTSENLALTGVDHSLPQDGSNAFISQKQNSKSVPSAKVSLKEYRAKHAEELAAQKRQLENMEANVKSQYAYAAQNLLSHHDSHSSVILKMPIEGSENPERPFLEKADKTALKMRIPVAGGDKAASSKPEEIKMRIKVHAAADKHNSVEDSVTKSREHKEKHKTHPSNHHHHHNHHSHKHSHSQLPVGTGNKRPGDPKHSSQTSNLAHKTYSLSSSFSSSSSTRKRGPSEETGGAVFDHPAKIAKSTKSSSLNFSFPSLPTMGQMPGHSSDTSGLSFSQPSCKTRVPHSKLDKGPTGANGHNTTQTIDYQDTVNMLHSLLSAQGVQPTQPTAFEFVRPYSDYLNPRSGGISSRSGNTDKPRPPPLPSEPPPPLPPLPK
UniProt Q7L3B6: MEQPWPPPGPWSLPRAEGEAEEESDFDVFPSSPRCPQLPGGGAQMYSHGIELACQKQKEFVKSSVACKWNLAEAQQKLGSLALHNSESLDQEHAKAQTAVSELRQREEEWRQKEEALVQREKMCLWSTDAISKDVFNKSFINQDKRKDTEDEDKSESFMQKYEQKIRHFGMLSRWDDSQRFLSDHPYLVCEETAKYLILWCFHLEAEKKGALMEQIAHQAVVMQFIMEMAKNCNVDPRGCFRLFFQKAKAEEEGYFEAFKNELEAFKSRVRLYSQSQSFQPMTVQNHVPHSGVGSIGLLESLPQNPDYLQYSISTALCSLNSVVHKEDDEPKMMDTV
UniProt Q8IWP9: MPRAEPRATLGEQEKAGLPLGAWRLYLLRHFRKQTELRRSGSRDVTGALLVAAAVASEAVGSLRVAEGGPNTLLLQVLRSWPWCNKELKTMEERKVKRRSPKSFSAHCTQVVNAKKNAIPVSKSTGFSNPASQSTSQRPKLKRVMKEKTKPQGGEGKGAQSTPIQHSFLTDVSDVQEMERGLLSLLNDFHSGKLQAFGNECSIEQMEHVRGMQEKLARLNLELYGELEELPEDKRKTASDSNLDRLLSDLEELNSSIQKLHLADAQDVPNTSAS

[2] = compound: CC[C@@H]1C(=O)N(C)c2cnc(Nc3ccc(C(=O)N[C@H]4CC[C@H](N5CCN(CC6CC6)CC5)CC4)cc3OC)nc2N1C(C)C [volasertib]
In short: as §1

[3] = compound: CC[C@H](C)N1C=C(C2=C(C=C(C=C21)C3=CN=C(C=C3)N4CCNCC4)C(=O)NCC5=C(C=C(NC5=O)C)C)C
In short: as §1

[4] = compound: CC[C@H](C)[C@@H](C(=O)N[C@@H]([C@@H](C)O)C(=O)N[C@@H](CC(C)C)C(=O)[C@]1(CO1)C)NC(=O)[C@H]([C@@H](C)CC)N(C)C(=O)C [epoxomicin]
In short: as §1

[5] = compound: CCn1c(C(=O)N(C2CC2)C2CC2)cc2c3c(ncn3C)c(Nc3cc(C)n(C)n3)nc21
In short: as §1

[6] = compound: CCn1cc(-c2ccnc3[nH]c(-c4cccc(CN(C)C)c4)cc23)c(-c2ccc(NC(=O)N(C)C)cc2)n1
In short: as §1

[7] = compound: CN(C)CC(=O)Nc1ccc2[nH]c(=O)c3ccccc3c2c1
In short: as §1

[8] = compound: CN(CCOC1=CC=C(C=C1)C[C@H]2C(=O)NC(=O)S2)C3=CC=CC=N3 (racemic) [rosiglitazone]
In short: as §1

[9] = compound: CN1C2=C(C3=C1C(=O)N(N=C3)CC4=CC(=CC=C4)N)SC(=C2)S(=O)C
In short: as §1

[10] = compound: CN1CCC(CNc2ccc3ncc(-c4cccc(OC(F)(F)F)c4)n3n2)CC1
In short: as §1

[11] = compound: CN1CCN(CCOc2cc(OC3CCOCC3)c3c(Nc4c(Cl)ccc5c4OCO5)ncnc3c2)CC1 [saracatinib]
In short: as §1

[12] = compound: CN1CCN(c2nc(C3=C(c4c[nH]c5ccccc45)C(=O)NC3=O)c3ccccc3n2)CC1 [sotrastaurin]
In short: as §1

[13] = compound: CN1CC[C@H](c2c(O)cc(O)c3c(=O)cc(-c4ccccc4Cl)oc23)[C@H](O)C1 [alvocidib]
In short: as §1

[14] = compound: CN1CCc2c(c3ccccc3n2Cc2ccc(C(=O)NO)cc2)C1 [Tubastatin A]
In short: as §1

[15] = compound: CNC(=O)C1=CC=CC=C1NC2=NC(=NC=C2Cl)NC3=C(C=C(C=C3)N4CCOCC4)OC
In short: as §1

[16] = compound: CNC(=O)c1ccc(Nc2ncc(C(F)(F)F)c(NCc3nccnc3N(C)S(C)(=O)=O)n2)cc1 [defactinib]
In short: as §1

[17] = compound: CNCc1ccc(-c2[nH]c3cc(F)cc4c3c2CCNC4=O)cc1 [rucaparib]
In short: as §1

[18] = compound: CNc1nc(-c2ccc3c(N)n[nH]c3c2)cc(N2C[C@@H](C(=O)NC3CCCCC3)CC[C@H]2C)n1
In short: as §1

[19] = compound: COC(=O)N[C@@H](C)CNc1nccc(-c2cn(C(C)C)nc2-c2cc(Cl)cc(NS(C)(=O)=O)c2F)n1 [encorafenib]
In short: as §1

[20] = compound: COC(=O)[C@H](CCSC)NC(=O)C1=C(C=C(C=C1)NC[C@H](CS)N)C2=CC=CC=C2
In short: as §1

Measured: log2 fold change

CDC16 (UniProt Q13042)
inactive: [1] 0 | [2] -0.117 | [3] 0.033 | [4] 0.026 | [5] 0.02 | [6] 0.013 | [7] 0.005 | [8] 0.002 | [9] 0.007 | [10] 0.016 | [11] 0.015 | [12] -0.031 | [13] -0.03 | [14] 0.022 | [15] 0.042 | [16] -0.028 | [17] -0.028 | [18] -0.043 | [19] 0.073 | [20] -0.01

CD63 (UniProt P08962)
inactive: [1] -0.013 | [2] 0.048 | [3] -0.013 | [4] -0.019 | [6] 0.06 | [7] 0.01 | [9] 0.012 | [10] 0.018 | [11] 0.021 | [12] 0.017 | [14] -0.005 | [15] 0 | [16] -0.006 | [17] -0.018 | [18] -0.01 | [19] 0.049 | [20] 0.015

CD81 (UniProt P60033)
active: [1] 0.393
inactive: [2] 0.193 | [3] -0.06 | [4] 0.013 | [6] -0.226 | [7] 0.098 | [9] -0.139 | [10] 0.145 | [11] 0.163 | [12] 0.103 | [14] -0.064 | [15] -0.029 | [16] -0.053 | [17] -0.152 | [18] 0.207 | [19] 0.199 | [20] 0

CCZ1 (UniProt P86791)
active: [10] -0.256
inactive: [1] -0.199 | [2] -0.113 | [3] -0.005 | [4] 0.013 | [6] 0.028 | [7] -0.002 | [9] -0.002 | [11] 0.079 | [12] -0.003 | [14] -0.016 | [15] 0.012 | [16] -0.018 | [17] -0.006 | [18] -0.025 | [19] -0.01 | [20] -0.019

CCDC97 (UniProt Q96F63)
inactive: [1] -0.096 | [2] -0.32 | [3] 0.094 | [4] 0.06 | [5] 0.031 | [7] 0.078 | [8] -0.099 | [9] 0.054 | [11] 0.144 | [12] -0.166 | [13] -0.281 | [14] -0.017 | [15] -0.065 | [16] -0.103 | [17] 0.062 | [18] -0.141 | [19] -0.014 | [20] -0.048

CCAR1 (UniProt Q8IX12)
active: [10] -0.319
inactive: [1] 0.079 | [2] 0.149 | [3] 0.063 | [4] 0.008 | [6] -0.219 | [7] 0.018 | [9] -0.039 | [11] -0.038 | [12] -0.027 | [14] -0.001 | [15] -0.039 | [16] -0.021 | [17] 0.026 | [18] 0.086 | [19] -0.005 | [20] -0.033

CBS (UniProt P35520)
inactive: [1] 0.007 | [2] 0.036 | [3] -0.049 | [4] 0.035 | [6] 0.02 | [7] -0.012 | [9] -0.073 | [10] -0.03 | [11] -0.009 | [12] 0.011 | [14] -0.069 | [15] -0.021 | [16] 0.003 | [17] -0.061 | [18] -0.03 | [19] -0.001 | [20] -0.013

CASP8 isoform 9 (UniProt Q14790)
active: [2] -0.489
inactive: [1] 0.025 | [3] 0.065 | [4] 0.052 | [6] -0.019 | [7] 0 | [9] -0.026 | [10] -0.082 | [11] -0.032 | [12] -0.019 | [14] 0.115 | [15] 0.053 | [16] -0.1 | [17] 0.011 | [18] 0.04 | [19] 0.044 | [20] 0.037

CCNB1 (UniProt P14635)
inactive: [1] 0.023 | [2] 0.026 | [3] -0.027 | [4] 0.083 | [6] -0.004 | [7] 0.012 | [9] -0.043 | [10] -0.032 | [11] -0.005 | [12] 0.02 | [14] -0.018 | [15] -0.051 | [16] -0.065 | [17] -0.025 | [18] -0.034 | [19] -0.002 | [20] 0.035

CDC123 (UniProt O75794)
inactive: [1] 0.06 | [2] -0.002 | [3] 0.07 | [4] 0.137 | [6] -0.021 | [7] 0.015 | [9] -0.009 | [10] -0.1 | [11] -0.039 | [12] 0.073 | [14] 0.075 | [15] -0.043 | [16] 0.008 | [17] -0.017 | [18] -0.041 | [19] 0.052 | [20] -0.032

CBX1 (UniProt P83916)
inactive: [1] 0.001 | [2] -0.119 | [3] 0.103 | [4] -0.022 | [6] -0.037 | [7] -0.013 | [9] 0.028 | [10] -0.014 | [11] 0.073 | [12] -0.037 | [14] 0.035 | [15] -0.018 | [16] -0.143 | [17] -0.01 | [18] -0.02 | [19] -0.043 | [20] 0

Five neighbouring records from above, for reference:
CCZ1 (UniProt P86791)
active: [10] -0.256
inactive: [1] -0.199 | [2] -0.113 | [3] -0.005 | [4] 0.013 | [6] 0.028 | [7] -0.002 | [9] -0.002 | [11] 0.079 | [12] -0.003 | [14] -0.016 | [15] 0.012 | [16] -0.018 | [17] -0.006 | [18] -0.025 | [19] -0.01 | [20] -0.019

CCDC97 (UniProt Q96F63)
inactive: [1] -0.096 | [2] -0.32 | [3] 0.094 | [4] 0.06 | [5] 0.031 | [7] 0.078 | [8] -0.099 | [9] 0.054 | [11] 0.144 | [12] -0.166 | [13] -0.281 | [14] -0.017 | [15] -0.065 | [16] -0.103 | [17] 0.062 | [18] -0.141 | [19] -0.014 | [20] -0.048

CCAR1 (UniProt Q8IX12)
active: [10] -0.319
inactive: [1] 0.079 | [2] 0.149 | [3] 0.063 | [4] 0.008 | [6] -0.219 | [7] 0.018 | [9] -0.039 | [11] -0.038 | [12] -0.027 | [14] -0.001 | [15] -0.039 | [16] -0.021 | [17] 0.026 | [18] 0.086 | [19] -0.005 | [20] -0.033

CBS (UniProt P35520)
inactive: [1] 0.007 | [2] 0.036 | [3] -0.049 | [4] 0.035 | [6] 0.02 | [7] -0.012 | [9] -0.073 | [10] -0.03 | [11] -0.009 | [12] 0.011 | [14] -0.069 | [15] -0.021 | [16] 0.003 | [17] -0.061 | [18] -0.03 | [19] -0.001 | [20] -0.013

CASP8 isoform 9 (UniProt Q14790)
active: [2] -0.489
inactive: [1] 0.025 | [3] 0.065 | [4] 0.052 | [6] -0.019 | [7] 0 | [9] -0.026 | [10] -0.082 | [11] -0.032 | [12] -0.019 | [14] 0.115 | [15] 0.053 | [16] -0.1 | [17] 0.011 | [18] 0.04 | [19] 0.044 | [20] 0.037

The list goes on.

CCDC9 (UniProt Q9Y3X0)
inactive: [1] 0.081 | [2] 0.127 | [3] -0.051 | [4] -0.018 | [6] 0.051 | [7] 0.002 | [9] 0.025 | [10] 0.009 | [11] 0.023 | [12] 0.077 | [14] -0.046 | [15] -0.038 | [16] 0.148 | [17] 0.116 | [18] -0.031 | [19] -0.021 | [20] 0.004

CD55 isoform 7 (UniProt P08174)
active: [10] 0.228
inactive: [1] 0.172 | [2] 0.096 | [3] -0.031 | [4] 0.086 | [6] -0.006 | [7] -0.042 | [9] -0.005 | [11] 0.06 | [12] -0.01 | [14] 0.033 | [15] 0.012 | [16] 0.007 | [17] 0.022 | [18] 0.028 | [19] -0.016 | [20] 0.039

CCAR2 isoform 2 (UniProt Q8N163)
inactive: [1] -0.08 | [3] 0.031 | [4] -0.018 | [6] -0.025 | [7] 0.044 | [9] 0.003 | [10] -0.145 | [11] -0.102 | [12] -0.231 | [14] 0.122 | [15] -0.083 | [17] -0.106 | [18] 0.031 | [19] -0.011 | [20] 0
active: [2] -0.343 | [16] -0.42

CCNT1 (UniProt O60563)
inactive: [1] 0.023 | [2] -0.085 | [3] 0.069 | [4] -0.063 | [6] 0.035 | [7] -0.055 | [9] 0.132 | [10] -0.036 | [11] -0.005 | [12] -0.173 | [14] 0.075 | [15] -0.086 | [16] -0.213 | [17] 0.044 | [18] 0.043 | [19] 0.163 | [20] 0.002

CDC37L1 (UniProt Q7L3B6)
inactive: [1] -0.14 | [2] -0.199 | [3] 0.059 | [4] 0.029 | [6] 0.091 | [7] -0.054 | [9] 0.001 | [10] -0.048 | [11] -0.003 | [12] 0.021 | [15] 0.002 | [16] 0.059 | [17] -0.058 | [18] -0.013 | [19] 0.005 | [20] 0.018
active: [14] -0.308

CASC3 (UniProt O15234)
active: [13] 0.6
inactive: [1] 0.303 | [2] 0.272 | [3] -0.068 | [4] -0.058 | [6] 0.087 | [7] -0.081 | [9] 0.102 | [10] 0.02 | [11] -0.015 | [12] 0.067 | [14] -0.06 | [15] 0.021 | [16] 0.323 | [17] 0.158 | [18] -0.126 | [19] -0.089 | [20] 0.073

CCDC28A (UniProt Q8IWP9)
inactive: [1] -0.032 | [2] 0.005 | [3] 0.042 | [4] 0.123 | [5] 0.001 | [7] 0.01 | [8] -0.056 | [9] -0.029 | [11] 0.007 | [12] 0.054 | [13] 0.024 | [14] 0.117 | [15] 0.056 | [16] -0.347 | [17] 0.031 | [18] 0.018 | [19] 0.098 | [20] 0.073
